These are yes or no findings as the source states them, for the method shown. In cells and extracts the contact can be indirect. Some results given as binding are weak or reduced against the parent protein; the word gives no strength.

Chains of the proteins cited; added tags and fusions are not shown. Residues count along the entry.
UniProt Q02248: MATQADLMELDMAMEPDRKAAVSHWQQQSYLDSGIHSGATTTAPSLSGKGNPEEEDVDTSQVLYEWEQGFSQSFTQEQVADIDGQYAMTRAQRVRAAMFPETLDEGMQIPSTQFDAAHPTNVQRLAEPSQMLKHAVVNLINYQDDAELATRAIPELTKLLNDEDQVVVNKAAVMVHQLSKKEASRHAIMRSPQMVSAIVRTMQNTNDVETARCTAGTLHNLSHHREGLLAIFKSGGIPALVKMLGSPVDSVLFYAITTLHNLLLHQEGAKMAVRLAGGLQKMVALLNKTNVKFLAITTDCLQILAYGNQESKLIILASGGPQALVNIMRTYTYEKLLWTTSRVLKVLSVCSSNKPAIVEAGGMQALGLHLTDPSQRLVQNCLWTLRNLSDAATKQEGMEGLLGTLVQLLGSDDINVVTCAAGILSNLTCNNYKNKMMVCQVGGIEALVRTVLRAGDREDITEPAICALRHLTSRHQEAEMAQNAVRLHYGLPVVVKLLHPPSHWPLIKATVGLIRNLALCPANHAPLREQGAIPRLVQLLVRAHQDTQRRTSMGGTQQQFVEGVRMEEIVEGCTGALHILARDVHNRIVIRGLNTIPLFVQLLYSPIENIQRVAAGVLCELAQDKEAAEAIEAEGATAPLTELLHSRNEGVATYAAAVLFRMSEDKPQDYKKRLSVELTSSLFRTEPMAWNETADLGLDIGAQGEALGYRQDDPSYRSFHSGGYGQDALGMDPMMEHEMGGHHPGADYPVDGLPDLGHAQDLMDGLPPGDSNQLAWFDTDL
UniProt P15116, residues 160-906: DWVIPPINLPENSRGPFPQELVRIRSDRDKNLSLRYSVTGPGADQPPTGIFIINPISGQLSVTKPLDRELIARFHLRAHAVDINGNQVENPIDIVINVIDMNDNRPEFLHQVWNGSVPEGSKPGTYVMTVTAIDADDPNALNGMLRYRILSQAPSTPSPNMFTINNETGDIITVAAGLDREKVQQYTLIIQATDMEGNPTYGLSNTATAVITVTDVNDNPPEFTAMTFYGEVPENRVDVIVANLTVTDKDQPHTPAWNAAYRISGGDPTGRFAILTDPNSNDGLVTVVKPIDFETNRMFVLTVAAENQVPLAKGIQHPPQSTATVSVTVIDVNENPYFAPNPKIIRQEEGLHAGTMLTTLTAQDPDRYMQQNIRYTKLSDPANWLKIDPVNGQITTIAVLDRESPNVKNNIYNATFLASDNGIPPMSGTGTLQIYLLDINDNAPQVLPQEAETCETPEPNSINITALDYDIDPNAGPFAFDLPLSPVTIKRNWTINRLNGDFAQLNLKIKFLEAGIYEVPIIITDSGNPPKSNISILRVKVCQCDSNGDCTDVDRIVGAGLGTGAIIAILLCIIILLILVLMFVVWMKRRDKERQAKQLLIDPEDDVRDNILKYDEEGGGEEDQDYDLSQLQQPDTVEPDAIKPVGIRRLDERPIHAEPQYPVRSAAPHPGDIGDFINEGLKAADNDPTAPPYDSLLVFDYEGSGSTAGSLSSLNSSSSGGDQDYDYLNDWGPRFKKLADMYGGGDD

The target of this test is β-catenin (mouse (endogenous in C3H10T1/2)) (UniProt Q02248). Kind of test: co-IP; lysates of C3H10T1/2 cells, control or after 35 min of oscillatory fluid flow; β-catenin precipitated with anti-β-catenin antibody and Protein G sepharose; beads washed four times with IP buffer (10 mM Tris-HCl pH 7.5, 1% Triton X-100, 0.5% NP-40, 150 mM NaCl, 2 mM CaCl2); western blot for N-cadherin, normalised to β-catenin. For orientation: A western blot detects proteins with antibodies after separation by electrophoresis.

In the case of “N-cadherin (from UniProt P15116 160-906)”, the binding result is listed as “binds”.
